These results are taken from publication PMC7819943, “Rice protein-binding microarrays: a tool to detect cis-acting elements near promoter regions in rice”.

The other results are listed elsewhere or left out.

In this assay the target is T1, OsSMF1 (Oryza sativa, UniProt Q6ZLB0 1-436).
T1 sequence: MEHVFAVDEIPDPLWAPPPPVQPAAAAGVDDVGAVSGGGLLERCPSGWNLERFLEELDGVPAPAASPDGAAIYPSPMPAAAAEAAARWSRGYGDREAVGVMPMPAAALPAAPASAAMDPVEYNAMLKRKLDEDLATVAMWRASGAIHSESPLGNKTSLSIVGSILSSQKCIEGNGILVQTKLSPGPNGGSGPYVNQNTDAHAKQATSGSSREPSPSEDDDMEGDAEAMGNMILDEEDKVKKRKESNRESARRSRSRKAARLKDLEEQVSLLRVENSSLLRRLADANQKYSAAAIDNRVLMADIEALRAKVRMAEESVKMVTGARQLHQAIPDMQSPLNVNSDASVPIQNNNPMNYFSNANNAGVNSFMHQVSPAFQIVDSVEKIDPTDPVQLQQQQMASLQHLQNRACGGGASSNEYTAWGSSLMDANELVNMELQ
Briefly: protein-binding microarray (RPBM); PBS, 2% BSA, 51.3 ng/ul salmon testes DNA, 50 uM zinc acetate, 200 nM TF, 25 C, 1 h; high values mean tight binding. The following applies: protein: recombinant; tags: N-terminal polyhistidine and DsRed monomer fusion (pET32a); chain copies: 2; label: CyDye5-dUTP incorporated in the synthesized complementary strand; 3' TTTTT single-stranded linker to array surface; dsDNA, one strand shown. A digest of the protocol:
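Transcription factors were each fused at the N-terminus to a polyhistidine tag plus DsRed and expressed in E. coli BL21-CodonPlus before Ni–NTA purification. Binding to a double-stranded custom Agilent array was carried out with 200 nM protein at 25 °C for 1 h in PBS, 2% BSA, salmon testes DNA and 50 µM zinc acetate. The binding signal is per-feature fluorescence intensity, in arbitrary units, on an Axon 4000B scanner.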
On to “AGGTGAATTTTCCAACATGACCAACATTTTGAACTTGGATCGGAGTCACCTAGTGCAG”, for which the binding signal was 3350 fluorescence intensity (a.u.).

Turning to “CAACATGCACGTACTACGTGTGCTTGCATTGCATGCATGCCGGAGTCACCTAGTGCAG”, the binding signal is 4450 fluorescence intensity (a.u.).

Consider “GCACTCGCCTCCTTCCTCCACCTCCACCACGCCCCACTCCCGGAGTCACCTAGTGCAG”, for which the binding signal is 11500 fluorescence intensity (a.u.).

Turning to “ATCGATCAGGCAATGAACCCATTATTGTTTGCCTCCAAAACGGAGTCACCTAGTGCAG”, the binding signal is 34100 fluorescence intensity (a.u.).

Turning to “CTGGTGACCTGTCGATCGAGTCCGCTGTTCTTGGTCAATCCGGAGTCACCTAGTGCAG”, the binding signal was 3290 fluorescence intensity (a.u.).

Regarding “AACTGTATGTTATCTCTGATGATCTTACACATGGCACAGGCGGAGTCACCTAGTGCAG”, the binding signal was 3400 fluorescence intensity (a.u.).

In the case of “CGTGCAAGGGCAACTTGACGTGCCTTGCATATCATTACAGCGGAGTCACCTAGTGCAG”, the binding signal is 4100 fluorescence intensity (a.u.).

Turning to “AAACATCCATAGAACGTGTAACATATGGTATCACGTGCCACGGAGTCACCTAGTGCAG”, the binding signal was 4080 fluorescence intensity (a.u.).

“GTCCCGCGCATTGGCGACGCGCGACCGGCACGGTCCCGCACGGAGTCACCTAGTGCAG”: the binding signal is 13500 fluorescence intensity (a.u.).

“TCACGTGTGCTTGAAATGGGCCTGAGTTGGGTTGGATATGCGGAGTCACCTAGTGCAG”: the binding signal is 3660 fluorescence intensity (a.u.).

Regarding “TGCCCAATTTGATGTGAACCCTAGCTTACTTGGTCACATGCGGAGTCACCTAGTGCAG”, the binding signal is 3250 fluorescence intensity (a.u.).

For the sequence “AGAGAAGTTAGGATTGAGTCATCTCTTTACTTTCCTGACTCGGAGTCACCTAGTGCAG”, the binding signal is 4710 fluorescence intensity (a.u.).

On to “GATCATCGTGTGGGTGCGGTGACGGAACGGTGACGTAAATCGGAGTCACCTAGTGCAG”, for which the binding signal is 3300 fluorescence intensity (a.u.).

Regarding “CACTCACCCCTATGAATGCGTGCACGCAAACCCTACCCCTCGGAGTCACCTAGTGCAG”, the binding signal was 3650 fluorescence intensity (a.u.).

Regarding “TTCACGCCCTGTAACATCGTGTGCATCCATCCCTCCACCGCGGAGTCACCTAGTGCAG”, the binding signal was 4190 fluorescence intensity (a.u.).

“CCAGACCCTTCCAGAACTCCCATCCGATCTCAATCCAACGCGGAGTCACCTAGTGCAG”: the binding signal was 3240 fluorescence intensity (a.u.).

As to “TGGCGCCGTTCCCCTGCCACCGTGGTAGCTGATGTGGCATCGGAGTCACCTAGTGCAG”, the binding signal is 12400 fluorescence intensity (a.u.).

In the case of “TTCCCCTTACTCTATCTCTCCCACTCCTGACCAATGTGGCCGGAGTCACCTAGTGCAG”, the binding signal is 3570 fluorescence intensity (a.u.).

Take “AACCCGAAAAGCTGCCGTCGCCTCGTCTCGTCGCCCCGAACGGAGTCACCTAGTGCAG”: the binding signal was 3340 fluorescence intensity (a.u.).

“AGAGATCACCCTTGTCACCGTCAACATGCCTGTGTTCTGCCGGAGTCACCTAGTGCAG”: the binding signal was 5590 fluorescence intensity (a.u.).

As for “GCTCCGCGTCGATCGAGGAGTAGTACACCGTGGTCTTGATCGGAGTCACCTAGTGCAG”, the binding signal is 3870 fluorescence intensity (a.u.).

Regarding “GATATCACAACCTGACCCACATTAGTCACACGCACTCACACGGAGTCACCTAGTGCAG”, the binding signal is 3790 fluorescence intensity (a.u.).

For “CTTGGTCGTTTTACTTGCAAGTGACTCAACGAATGCATCGCGGAGTCACCTAGTGCAG”, the binding signal is 5050 fluorescence intensity (a.u.).

In the case of “GACGAGGCCAGGGACGACATCGAGGACCTCGGCTGGCGCGCGGAGTCACCTAGTGCAG”, the binding signal is 4310 fluorescence intensity (a.u.).

Consider “TGCGACGTAAGCGCCACGTCAATCCCACATAAGACGAAGACGGAGTCACCTAGTGCAG”, for which the binding signal was 8000 fluorescence intensity (a.u.).

With “CATTTTGATTTGTTGCCACGTTCAACCCGATAACATGTATCGGAGTCACCTAGTGCAG”, the binding signal was 3180 fluorescence intensity (a.u.).

With “CTGCAATAATTGGGCATATCTTGGCGCACGCATCAGCAATCGGAGTCACCTAGTGCAG”, the binding signal is 3980 fluorescence intensity (a.u.).

For “GACACCAATACGCCCATACGGATACGTACACGTACGGCCTCGGAGTCACCTAGTGCAG”, the binding signal was 5070 fluorescence intensity (a.u.).

As for “CTTGACTAGGGACTCATACGTAATCATGGTTACAAGGATTCGGAGTCACCTAGTGCAG”, the binding signal was 3160 fluorescence intensity (a.u.).

Consider “TACTACGGTGGGTGGCAGAACTGTGTAATTTGGACTGGGTCGGAGTCACCTAGTGCAG”, for which the binding signal was 3170 fluorescence intensity (a.u.).

For “ACATGGAGCATGTCAGCATGTGAATCAGCAAACATATATGCGGAGTCACCTAGTGCAG”, the binding signal was 8960 fluorescence intensity (a.u.).

With “GTGGGCGGCGATGGGCGGTCAGCAGTGCCACCGTCATCCCCGGAGTCACCTAGTGCAG”, the binding signal is 5050 fluorescence intensity (a.u.).

In the case of “TCATCCCTCGGCCGGAAAACCGGGTATGACGGGTCCTCGACGGAGTCACCTAGTGCAG”, the binding signal was 4290 fluorescence intensity (a.u.).

For “TTAGATAATGTTTACTGTAGCATCACATAGGCTAATCATGCGGAGTCACCTAGTGCAG”, the binding signal was 3440 fluorescence intensity (a.u.).

Consider “AGGTCAGAAGTGTACTCGGTTGGTGCAATATGCCGTTCCTCGGAGTCACCTAGTGCAG”, for which the binding signal was 10500 fluorescence intensity (a.u.).

As for “AATACTTGGCTTGTTGTCATTATGTATGTACGTACATTGCCGGAGTCACCTAGTGCAG”, the binding signal was 3550 fluorescence intensity (a.u.).

For the sequence “TCAGAGTCAACAGCTGACCAACAATGCGGGACCCTTGCTCCGGAGTCACCTAGTGCAG”, the binding signal is 3240 fluorescence intensity (a.u.).

In the case of “CCGCTGCCGCGGCTTCTAGGTTTTCCATTCCCCATCCGCTCGGAGTCACCTAGTGCAG”, the binding signal is 25300 fluorescence intensity (a.u.).

Regarding “AGCTTACTGGTCGCTGGATTGTTTGATTTGCAAGAGCAAGCGGAGTCACCTAGTGCAG”, the binding signal is 14000 fluorescence intensity (a.u.).

On to “AGGTTCGCAGTTCCACGCATCCCACCATCACCACACCACGCGGAGTCACCTAGTGCAG”, for which the binding signal is 5160 fluorescence intensity (a.u.).

Turning to “CCAATTTCCGACTTCATGAGATTTATGTCTTTGTGGTCAGCGGAGTCACCTAGTGCAG”, the binding signal is 3210 fluorescence intensity (a.u.).

As to “AGCGGCATCAGCGCACGCGTCAGTCGTAGCCTCACTGCGACGGAGTCACCTAGTGCAG”, the binding signal is 3450 fluorescence intensity (a.u.).
